{"source": "PubChem BioAssay AID2685", "about": "(National Center for Advancing Translational Sciences (NCATS), 2010)", "experiment": "qHTS Assay for Lipid Storage Modulators in Drosophila S3 Cells;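 on cell number change: cells counted by Cell Tracker Red CMTPX staining in the red channel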", "settings": "BODIPY lipid droplet fluorescence, 18-24 h; for cell number change: measured here: cell count max response, cells fed with added oleic acid", "method_in_brief": "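Laser-scanning cytometry quantifies lipid droplet accumulation (500–530 nm total intensity; droplet/cell object ratio) in oleic acid-fed (400 uM added) Drosophila S3 cells treated with a concentration series. 20 uM Triacsin C defined 100% inhibition.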", "key": {"[1]": {"settings": "measured here: lipid fluorescence (Fed channel) AC50, cells fed with added oleic acid"}, "[2]": {"settings": "measured here: cell number channel AC50, cells fed with added oleic acid"}}, "note": "This is one part of the list. Further columns of the screen follow, without active or inactive calls. The list favours compounds with an active or inconclusive main result. The note in brackets gives the kind of curve behind each potency; many fits are weak.", "data": [{"smiles": "CCOC(=O)c1sc2nc(C)nc(SC(C)C(=O)N(C)c3ccccc3)c2c1C", "note": "(stereo not drawn)", "values": [{"measurement": "cell number change", "result": -7.38, "unit": "%"}, {"measurement": "AC50", "setting": "[1]", "result": "23100 nM [falling, single point]"}]}, {"smiles": "O=C(CN1CCC(n2nnc3cc(F)ccc32)CC1)Nc1ccccc1N1CCOCC1", "values": [{"measurement": "cell number change", "result": -17, "unit": "%"}, {"measurement": "AC50", "setting": "[1]", "result": "731 nM [rising, partial curve]"}]}, {"smiles": "CC(=O)c1c(C)[nH]c(C(=O)OCC(=O)N2c3ccccc3NC(=O)C2(C)C)c1C", "values": [{"measurement": "AC50", "setting": "[1]", "result": "820 nM [falling, full curve, poor fit]"}]}, {"smiles": "Nc1nc(CSC(=S)N2CCOCC2)nc(Nc2ccccc2)n1", "values": [{"measurement": "cell number change", "result": 10.5, "unit": "%"}, {"measurement": "AC50", "setting": "[1]", "result": "1160 nM [rising, full curve]"}]}, {"smiles": "COc1ccc(/C(N)=N/OC(=O)c2ccc(C)c([N+](=O)[O-])c2)cc1OC", "values": [{"measurement": "AC50", "setting": "[2]", "result": "2590 nM [rising, single point]"}, {"measurement": "AC50", "setting": "[1]", "result": "6510 nM [rising, single point]"}]}, {"smiles": "O=C(Nc1cc(C(F)(F)F)ccc1N1CCOCC1)c1ccc(Br)o1", "values": [{"measurement": "cell number change", "result": 15.7, "unit": "%"}, {"measurement": "AC50", "setting": "[2]", "result": "731 nM [rising, single point]"}, {"measurement": "AC50", "setting": "[1]", "result": "259 nM [rising, full curve, poor fit]"}]}, {"smiles": "CSc1ccccc1NC(=S)NC1CCCC1", "values": [{"measurement": "cell number change", "result": 27.6, "unit": "%"}, {"measurement": "AC50", "setting": "[1]", "result": "29100 nM [rising, single point]"}]}, {"smiles": "C=CCn1c(=O)c2c3c(sc2n2c(Nc4ccc(OC)cc4)nnc12)CCCC3", "values": [{"measurement": "cell number change", "result": -11.3, "unit": "%"}]}, {"smiles": "Cc1cc(C)c(S(=O)(=O)N2CCCCC2C(=O)O)c(C)c1", "note": "(stereo not drawn)", "values": [{"measurement": "cell number change", "result": -34.9, "unit": "%"}, {"measurement": "AC50", "setting": "[2]", "result": "18400 nM [falling, single point]"}, {"measurement": "AC50", "setting": "[1]", "result": "14600 nM [falling, partial curve]"}]}, {"smiles": "Cc1nc(SCc2ccccc2)c([N+](=O)[O-])[nH]1", "values": [{"measurement": "cell number change", "result": -2.43, "unit": "%"}, {"measurement": "AC50", "setting": "[1]", "result": "20600 nM [rising, partial curve]"}]}, {"smiles": "COc1ccc(C(=O)NC2CCN(CC(=O)NCc3cccc(OC)c3)CC2)cc1", "values": [{"measurement": "cell number change", "result": 16.4, "unit": "%"}]}, {"smiles": "CN(C)c1ccc(-c2nnc(-c3cccnc3)o2)cc1", "values": [{"measurement": "AC50", "setting": "[2]", "result": "73.1 nM [falling, full curve, poor fit]"}]}, {"smiles": "CC1CCCCC1N=C1NC(C)(C)CS1", "note": "(stereo not drawn)", "values": [{"measurement": "cell number change", "result": -24.6, "unit": "%"}, {"measurement": "AC50", "setting": "[2]", "result": "4110 nM [falling, single point]"}, {"measurement": "AC50", "setting": "[1]", "result": "580 nM [falling, full curve, poor fit]"}]}, {"smiles": "CCn1c(SCC(=O)NC2CCCCC2)nnc1-c1ccccc1F", "values": [{"measurement": "cell number change", "result": 11.8, "unit": "%"}, {"measurement": "AC50", "setting": "[1]", "result": "29100 nM [rising, single point]"}]}, {"smiles": "N=c1n(CCO)c2ccccc2n1CCOc1ccccc1", "values": [{"measurement": "cell number change", "result": 3.52, "unit": "%"}, {"measurement": "AC50", "setting": "[1]", "result": "5800 nM [falling, full curve]"}]}, {"smiles": "O=C(COC(=O)C1=COCCO1)Nc1ccccc1OC(F)F", "values": [{"measurement": "cell number change", "result": -24.2, "unit": "%"}, {"measurement": "AC50", "setting": "[1]", "result": "1300 nM [falling, partial curve]"}]}, {"smiles": "CCOc1ccccc1N(CC(=O)Nc1ccccc1F)S(=O)(=O)c1ccccc1", "values": [{"measurement": "cell number change", "result": -24.7, "unit": "%"}, {"measurement": "AC50", "setting": "[1]", "result": "29100 nM [falling, single point]"}]}, {"smiles": "CCCOC(=O)C1=C(C)NC2=C(C(=O)CC(C)(C)C2)C1c1cccnc1", "note": "(stereo not drawn)", "values": [{"measurement": "cell number change", "result": 13.5, "unit": "%"}, {"measurement": "AC50", "setting": "[1]", "result": "731 nM [rising, full curve, poor fit]"}]}, {"smiles": "N#Cc1c(NCCO)ccc([N+](=O)[O-])c1NCCO", "values": [{"measurement": "cell number change", "result": -0.241, "unit": "%"}, {"measurement": "AC50", "setting": "[2]", "result": "2910 nM [rising, single point]"}]}, {"smiles": "Cc1ccc2nc(N/N=C\\c3ccc([N+](=O)[O-])o3)nc(-c3ccccc3)c2c1", "values": [{"measurement": "AC50", "setting": "[2]", "result": "231 nM [rising, full curve, poor fit]"}, {"measurement": "AC50", "setting": "[1]", "result": "5170 nM [rising, partial curve, poor fit]"}]}, {"smiles": "O=c1cnnc(Nc2cccc(F)c2)[nH]1", "values": [{"measurement": "cell number change", "result": 17.2, "unit": "%"}, {"measurement": "AC50", "setting": "[1]", "result": "92 nM [falling, partial curve, poor fit]"}]}, {"smiles": "Cc1cc(C)c(OCC(=O)Nc2nnc(-c3ccco3)o2)c(C)c1", "values": [{"measurement": "cell number change", "result": -13.4, "unit": "%"}, {"measurement": "AC50", "setting": "[1]", "result": "517 nM [falling, full curve, poor fit]"}]}, {"smiles": "Cc1nn(CC(=O)NNC(=O)c2ccc(Br)cc2)c(C)c1[N+](=O)[O-]", "values": [{"measurement": "cell number change", "result": 14.1, "unit": "%"}, {"measurement": "AC50", "setting": "[1]", "result": "820 nM [rising, full curve, poor fit]"}]}, {"smiles": "COc1cccc(CCNc2ccc(N3C(=O)CC(C)C3=O)cc2[N+](=O)[O-])c1", "note": "(stereo not drawn)", "values": [{"measurement": "cell number change", "result": -7.53, "unit": "%"}, {"measurement": "AC50", "setting": "[1]", "result": "65.1 nM [falling, full curve, poor fit]"}]}, {"smiles": "Cc1cc2ccccc2n1CCNC(=O)c1cccs1", "values": [{"measurement": "AC50", "setting": "[2]", "result": "2060 nM [rising, single point]"}]}, {"smiles": "C=C(C)COc1ccc(-c2[nH]ncc2-c2ccc(OC)c(OC)c2)c(O)c1", "values": [{"measurement": "cell number change", "result": -126, "unit": "%"}, {"measurement": "AC50", "setting": "[2]", "result": "29100 nM [falling, single point]"}, {"measurement": "AC50", "setting": "[1]", "result": "23100 nM [falling, single point]"}]}, {"smiles": "COc1cccc(/C=N/Nc2nn3cnnc3c3ccccc23)c1", "values": [{"measurement": "cell number change", "result": -32.3, "unit": "%"}, {"measurement": "AC50", "setting": "[2]", "result": "29100 nM [falling, single point]"}, {"measurement": "AC50", "setting": "[1]", "result": "731 nM [rising, partial curve]"}]}, {"smiles": "CCCc1cc(=O)[nH]c(SCC(=O)N2CCN(S(=O)(=O)c3ccc4ccccc4c3)CC2)n1", "values": [{"measurement": "cell number change", "result": -33.1, "unit": "%"}, {"measurement": "AC50", "setting": "[2]", "result": "206 nM [falling, full curve]"}]}, {"smiles": "CC(=O)Oc1ccccc1C1=NN(C(=O)/C=C/c2ccccc2)C(c2ccccc2)C1", "note": "(stereo not drawn)", "values": [{"measurement": "cell number change", "result": -18.8, "unit": "%"}, {"measurement": "AC50", "setting": "[1]", "result": "16400 nM [falling, single point]"}]}, {"smiles": "CCOC(=O)c1sc(NC(=O)CCN2C(=O)c3ccccc3C2=O)c(C(=O)OCC)c1C", "values": [{"measurement": "cell number change", "result": 10.7, "unit": "%"}]}, {"smiles": "c1ccc(NC2=NCCN2CCCC2CCCC2)cc1", "values": [{"measurement": "cell number change", "result": 14.7, "unit": "%"}, {"measurement": "AC50", "setting": "[2]", "result": "651 nM [falling, partial curve, poor fit]"}, {"measurement": "AC50", "setting": "[1]", "result": "5800 nM [falling, partial curve, poor fit]"}]}, {"smiles": "O=C(O)c1cc2c(cc1NC(=O)c1ccccc1OC(F)F)OCCCO2", "values": [{"measurement": "cell number change", "result": 17.8, "unit": "%"}]}, {"smiles": "COc1ccc(-c2csc(Nc3cccc(C)n3)n2)cc1", "values": [{"measurement": "cell number change", "result": -27.8, "unit": "%"}, {"measurement": "AC50", "setting": "[1]", "result": "5.17 nM [falling, full curve, poor fit]"}]}, {"smiles": "COc1ccc(CCNC(=O)CSc2nnc3ccc(-c4ccccn4)nn23)cc1OC", "values": [{"measurement": "AC50", "setting": "[2]", "result": "206 nM [rising, full curve, poor fit]"}, {"measurement": "AC50", "setting": "[1]", "result": "259 nM [rising, full curve]"}]}, {"smiles": "O=C(c1ccccc1)c1cnc[nH]1", "values": [{"measurement": "cell number change", "result": -10.1, "unit": "%"}, {"measurement": "AC50", "setting": "[2]", "result": "651 nM [rising, full curve, poor fit]"}]}, {"smiles": "CCOc1cc(S(=O)(=O)NCc2cccs2)ccc1Cl", "values": [{"measurement": "cell number change", "result": -5.95, "unit": "%"}]}, {"smiles": "CCOc1ccc(-c2ccc(SCC(=O)NCC3CCCO3)nn2)cc1", "note": "(stereo not drawn)", "values": [{"measurement": "cell number change", "result": 4.97, "unit": "%"}, {"measurement": "AC50", "setting": "[1]", "result": "231 nM [rising, full curve, poor fit]"}]}, {"smiles": "CC1(C)C(=O)Nc2ccccc2N1C(=O)CN1C(=O)C(=O)N(C2CCCC2)C1=O", "values": [{"measurement": "cell number change", "result": -11, "unit": "%"}]}]}
